Data as given in PubChem BioAssay AID504764 (Drosophila RNAi Screening Center, 2011)
The screen tested about 22,000 reagents; this is an unselected part of those that have a named target and a result. Of all reagents, 403 (1.9%) were called active. 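Unnormalised raw counts per well; ratio z-scores behind the hit calls and whether each hit raises or lowers signal are not deposited.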 The numbers tell different reagents against one gene apart. A plus sign joins genes that one reagent is predicted to hit. The record does not give: the amount of reagent.

Assay: 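Knock-downs that raise or lower a Notch target reporter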 (primary screen)
System: Drosophila Kc167 cells
Reagent: long dsRNA against Drosophila genes
Time to read-out: about 5 days (4 days dsRNA, then 24 h after transfection)
Treatment: transfection of constitutively active membrane-tethered Notch lacking the extracellular domain, read 24 h later
Detection: 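Firefly luciferase from an E(spl)m3 reporter with active Notch, plus control-promoter and uninduced reporter wells for normalisation; unnormalised counts, duplicate wells a and b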
Scale: induced reporter light, run 1, well a and induced reporter light, run 1, well b: higher = more light from the Notch target reporter with active Notch; control promoter light, run 1, well a and control promoter light, run 1, well b: higher = more light from the viral control promoter (cell number, transfection, viability); uninduced reporter light, run 1, well a: higher = more light from the Notch target reporter without active Notch
Rule for the call: 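Hit if the duplicate-averaged log2 ratio of induced to control-promoter light gives a plate-wise z beyond ±2, or induced to uninduced beyond ±1.8; weak-control or discordant-duplicate wells dropped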
Meaning of the calls: active = modifier hit (raised or lowered Notch signal); inactive = not a hit

{"Gene": "Taf13 (GeneID 35297)", "dsRNA no.": 1, "induced reporter light, run 1, well a": 50570, "induced reporter light, run 1, well b": 40070, "control promoter light, run 1, well a": 23392, "control promoter light, run 1, well b": 31140, "uninduced reporter light, run 1, well a": 2585, "Call": "inactive"}
{"Gene": "Gbs-76A (GeneID 40102)", "dsRNA no.": 1, "induced reporter light, run 1, well a": 1.31e5, "induced reporter light, run 1, well b": 1.29e5, "control promoter light, run 1, well a": 59600, "control promoter light, run 1, well b": 83055, "uninduced reporter light, run 1, well a": 7665, "Call": "inactive"}
{"Gene": "frtz (GeneID 33349)", "dsRNA no.": 1, "induced reporter light, run 1, well a": 70600, "induced reporter light, run 1, well b": 67940, "control promoter light, run 1, well a": 41090, "control promoter light, run 1, well b": 40815, "uninduced reporter light, run 1, well a": 6915, "Call": "inactive"}
{"Gene": "LTV1 (GeneID 36146)", "dsRNA no.": 1, "induced reporter light, run 1, well a": 1.05e5, "induced reporter light, run 1, well b": 97295, "control promoter light, run 1, well a": 1.04e5, "control promoter light, run 1, well b": 89480, "uninduced reporter light, run 1, well a": 8020, "Call": "inactive"}
{"Gene": "UQCR-C1 (GeneID 41800)", "dsRNA no.": 1, "induced reporter light, run 1, well a": 1.27e5, "induced reporter light, run 1, well b": 1.18e5, "control promoter light, run 1, well a": 79500, "control promoter light, run 1, well b": 91695, "uninduced reporter light, run 1, well a": 9220, "Call": "inactive"}
{"Gene": "trpl (GeneID 36003)", "dsRNA no.": 1, "induced reporter light, run 1, well a": 1.82e5, "induced reporter light, run 1, well b": 1.61e5, "control promoter light, run 1, well a": 2.23e5, "control promoter light, run 1, well b": 2.31e5, "uninduced reporter light, run 1, well a": 15520, "Call": "inactive"}
{"Gene": "trpl (GeneID 36003)", "dsRNA no.": 2, "induced reporter light, run 1, well a": 1.74e5, "induced reporter light, run 1, well b": 1.85e5, "control promoter light, run 1, well a": 1.97e5, "control promoter light, run 1, well b": 2.10e5, "uninduced reporter light, run 1, well a": 15728, "Call": "inactive"}

An excerpt from above, reduced to “control promoter light, run 1, well a”:
UQCR-C1 (GeneID 41800) = 79500
trpl (GeneID 36003) #1 = 2.23e5

Further records:
{"Gene": "robo2 (GeneID 44522)", "dsRNA no.": 1, "induced reporter light, run 1, well a": 1.19e5, "induced reporter light, run 1, well b": 1.16e5, "control promoter light, run 1, well a": 86580, "control promoter light, run 1, well b": 53365, "uninduced reporter light, run 1, well a": 8050, "Call": "inactive"}
{"Gene": "robo2 (GeneID 44522)", "dsRNA no.": 2, "induced reporter light, run 1, well a": 1.05e5, "induced reporter light, run 1, well b": 1.27e5, "control promoter light, run 1, well a": 91625, "control promoter light, run 1, well b": 62580, "uninduced reporter light, run 1, well a": 10690, "Call": "inactive"}
{"Gene": "robo2 (GeneID 44522)", "dsRNA no.": 3, "induced reporter light, run 1, well a": 1.44e5, "induced reporter light, run 1, well b": 1.09e5, "control promoter light, run 1, well a": 98510, "control promoter light, run 1, well b": 66855, "uninduced reporter light, run 1, well a": 9720, "Call": "inactive"}
{"Gene": "robo2 (GeneID 44522)", "dsRNA no.": 4, "induced reporter light, run 1, well a": 1.13e5, "induced reporter light, run 1, well b": 1.27e5, "control promoter light, run 1, well a": 79040, "control promoter light, run 1, well b": 81785, "uninduced reporter light, run 1, well a": 10590, "Call": "inactive"}
{"Gene": "yem (GeneID 43439)", "dsRNA no.": 1, "induced reporter light, run 1, well a": 1.43e5, "induced reporter light, run 1, well b": 1.46e5, "control promoter light, run 1, well a": 2.28e5, "control promoter light, run 1, well b": 2.17e5, "uninduced reporter light, run 1, well a": 15610, "Call": "inactive"}
{"Gene": "yem (GeneID 43439)", "dsRNA no.": 2, "induced reporter light, run 1, well a": 80415, "induced reporter light, run 1, well b": 86395, "control promoter light, run 1, well a": 1.39e5, "control promoter light, run 1, well b": 1.29e5, "uninduced reporter light, run 1, well a": 10230, "Call": "inactive"}
{"Gene": "CG13031 (GeneID 39867)", "dsRNA no.": 1, "induced reporter light, run 1, well a": 1.72e5, "induced reporter light, run 1, well b": 1.59e5, "control promoter light, run 1, well a": 2.30e5, "control promoter light, run 1, well b": 2.15e5, "uninduced reporter light, run 1, well a": 8450, "Call": "inactive"}
{"Gene": "CG13197 (GeneID 36253)", "dsRNA no.": 1, "induced reporter light, run 1, well a": 82095, "induced reporter light, run 1, well b": 1.00e5, "control promoter light, run 1, well a": 1.24e5, "control promoter light, run 1, well b": 1.09e5, "uninduced reporter light, run 1, well a": 8375, "Call": "inactive"}
{"Gene": "Naam (GeneID 42348)", "dsRNA no.": 1, "induced reporter light, run 1, well a": 1.83e5, "induced reporter light, run 1, well b": 1.96e5, "control promoter light, run 1, well a": 1.93e5, "control promoter light, run 1, well b": 2.25e5, "uninduced reporter light, run 1, well a": 12280, "Call": "inactive"}
{"Gene": "KdelR (GeneID 34427)", "dsRNA no.": 1, "induced reporter light, run 1, well a": 1.79e5, "induced reporter light, run 1, well b": 1.80e5, "control promoter light, run 1, well a": 94730, "control promoter light, run 1, well b": 92575, "uninduced reporter light, run 1, well a": 14170, "Call": "active"}
{"Gene": "CG33791 + CG18170", "dsRNA no.": 1, "induced reporter light, run 1, well a": 1.21e5, "induced reporter light, run 1, well b": 1.07e5, "control promoter light, run 1, well a": 1.83e5, "control promoter light, run 1, well b": 1.63e5, "uninduced reporter light, run 1, well a": 6440, "Call": "inactive"}
{"Gene": "CG33791 + CG18170", "dsRNA no.": 2, "induced reporter light, run 1, well a": 1.74e5, "induced reporter light, run 1, well b": 1.99e5, "control promoter light, run 1, well a": 2.54e5, "control promoter light, run 1, well b": 2.98e5, "uninduced reporter light, run 1, well a": 10150, "Call": "inactive"}
